Series [1] relates to MBP-SmSoxS1 (Schistosoma mansoni). Description: EMSA. To be noted: poly dI-dC 0.75 ug, LightShift EMSA kit, 200 fmol biotin probe, 12.4 ug MBP-SmSoxS1, 0.75 ug poly dI-dC, 30 min, 5% native PAGE 0.5x TBE, pH and temperature not stated, recombinant protein, protein details: N-terminal MBP (pMAL-c5X), label: biotin (unlabeled version as competitor). (In general: Mobility shift assays separate free from complexed probe on a gel.)

Series [2] has the same test system. Put plainly: competition with a labelled probe. As to conditions: nonspecific control sequence, competitor 1000x (200 pmol vs 200 fmol probe); LightShift EMSA kit, 200 fmol biotin probe, 12.4 ug MBP-SmSoxS1, 0.75 ug poly dI-dC, 30 min; 5% native PAGE 0.5x TBE; pH and temperature not stated; recombinant protein; protein details: N-terminal MBP (pMAL-c5X).

The exact form of at least one protein or probe is not confirmed. For part of these data: A negative result means that nothing was seen under these conditions.

As for “AGCTTCTCGAGCTGCTCTTTGTTTGGTTACTCTAAATAC (double strand) [SmFGF4 upstream Sox element probe]”, the binding result in series [1] (weaker than SmSOXS1 probe but effective) is “binds”. For “GCCGATCCGCATTTTGTGACATCCTTCAGC (double strand) [NDT80 element (AT014)]”, in series [2], the binding result is given as “no binding”.

Consider “TATCAATTTGACGTTACATTGATGGTTTATTGTGATGGG (double strand) [SmSOXS1 upstream Sox element probe]”, for which, in series [1] (stronger than SmFGF4 probe), the binding result was “binds”.

(Values after paper PMC10222431.)
